According to PubChem BioAssay AID504467 (National Center for Advancing Translational Sciences (NCATS), 2011):
The campaign covered roughly 330,000 compounds. About 7,700 (2.3%) were called active. Inconclusive results, whose numbers are uncertain, are shown with a selection of clear calls. Calls come from the whole dose curve; as a rule, active = well fitted inhibition curve with a large enough effect; inconclusive = small, poorly fitted or top-dose-only effect, or effect the other way; inactive = flat fitted curve, though single readings scatter. Potencies of inconclusive entries are doubtful fits and often do not repeat.

Experiment: qHTS screen for small molecules that inhibit ELG1-dependent DNA repair in human embryonic kidney (HEK293T) cells expressing luciferase-tagged ELG1; note: nearly all actives have a fitted effect of over 55% in size
Conditions: HEK293T ELG1-luciferase reporter, luminescence, 16 h, DNA damage induced by 5-fluorouridine; series mostly up to 46.1 µM
Outline: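 Step one: seed 2,000 cells per well. Step two: pin-transfer compound or DMSO alongside 5-fluorouridine. Step three: incubate 16 hr, 37 °C, 5% CO2. Step four: add ONE-Glo, wait 30 min, read luminescence.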
Potency is the fitted concentration of half-maximal effect.

| Structure (SMILES) | Potency |
| --- | --- |
| Cc1csc(NC(=O)CSc2nc(C)cs2)n1 | inconclusive: 23.1 µM [activator, single point] |
| CC(=O)NS(=O)(=O)c1ccc(NC(=O)C(Sc2ccccc2)c2ccccc2)cc1 (configuration not stated) | inactive |
| CC1Cc2ccccc2N1Cc1cccc(S(=O)(=O)N(C)C)c1 (configuration not stated) | inactive |
| COc1cc2nc(NC(=O)c3ccc(Cl)cc3)sc(=O)c2cc1OC | inconclusive: 16.4 µM [activator, single point] |
| Cc1ccccc1OCC(=O)N1CCCc2ccccc21 | inconclusive: 14.6 µM [activator, partial curve, poor fit] |
| Cc1c(C(=O)N2CCN(c3cccc(Cl)c3)CC2)cccc1[N+](=O)[O-] | inconclusive: 25.9 µM [inhibitor, single point] |
| CN(C)CCNC(=O)c1coc(=O)c(Br)c1 | inconclusive: 18.4 µM [activator, single point] |
| COc1ccc(/C=C/C(=O)Nc2ccccc2C(=O)O)cc1 | inconclusive: 2.06 µM [activator, partial curve] |
| CC1CCN(C(=O)Cn2cc3c(n2)CCCC3)CC1 | inconclusive: 18.4 µM [activator, partial curve] |
| Cc1cc(NC(=O)COC(=O)c2cc([N+](=O)[O-])ccc2N2CCOCC2)ccc1Br | inconclusive: 25.9 µM [inhibitor, single point] |
| COc1ccc(-c2cc(O)cc(O)c2)cc1 | inconclusive: 18.4 µM [activator, partial curve] |
| O=C(Cn1ncc(N2CCOCC2)c(Br)c1=O)c1ccc(Cl)cc1 | inactive |
| CC(=O)Nc1sc(/C(C#N)=C/c2ccc(Cl)c(Cl)c2)nc1-c1ccc(C)cc1 | inactive |
| CCN(CC)CCNC(=O)c1cccc(NC(=O)C(=O)c2ccccc2NC(C)=O)c1 | inconclusive: 14.6 µM [activator, partial curve] |
| O=C(Cn1[nH]c(=O)c2ccccc2c1=O)Nc1ccc2c(c1)CCC2 | inactive |
| CN1CCN(C(=O)C2CCC(=O)N(Cc3cccc(C(F)(F)F)c3)C2)CC1 (configuration not stated) | inconclusive: 13 µM [inhibitor, partial curve, poor fit] |
| CC(=O)N1CCc2cc(S(=O)(=O)CCC(=O)NCc3ccc(Cl)cc3)ccc21 | inconclusive: 18.3 µM [inhibitor, single point] |
| O=C(Nc1cc(C(F)(F)F)ccc1N1CCOCC1)c1ccccc1 | inactive |
| CN(CC(=O)Nc1ccc(Cl)c(C(F)(F)F)c1)C(=O)CCCc1nc2ccccc2c(=O)[nH]1 | active: 11.2 µM |
| CC(=O)N1c2ccc(S(=O)(=O)N3CCCC(C(=O)Nc4cccc(Cl)c4)C3)cc2CC1C (configuration not stated) | inconclusive: 18.3 µM [inhibitor, partial curve] |
| CCS(=O)(=O)Nc1ccc(C2=NN(S(C)(=O)=O)C(c3cccs3)C2)cc1 (configuration not stated) | inconclusive: 16.4 µM [activator, partial curve, poor fit] |
| CCOC(=O)C1(CCc2ccccc2)CCN(Cc2ccccn2)CC1 | inactive |
| CCCCCc1ccc(-c2cn(Cc3ccc(C)cc3)nn2)cc1 | inactive |

| Structure (SMILES) | Potency |
| --- | --- |
| COc1cc(OC)c(Nc2cc(C)nc3nc(C)nn23)cc1Cl | inconclusive: 18.4 µM [inhibitor, partial curve, poor fit] |
| CCCn1c(N)c(N(CCOC)C(=O)c2cccc(S(=O)(=O)N3CCCc4ccccc43)c2)c(=O)[nH]c1=O | inactive |
| COC(=O)CCN(c1ccccc1)S(=O)(=O)c1cc(-c2cc(C)no2)ccc1OC | inactive |
| CCCc1cc(C(=O)Nc2nccs2)cs1 | inconclusive: 1.64 µM [activator, partial curve] |
| CS(=O)(=O)NCc1csc(-c2ccccc2)n1 | inconclusive: 18.4 µM [activator, single point] |
| COc1ccc(S(=O)(=O)N(CC(=O)NC2CC2)Cc2ccccc2)cc1 | inactive |
| Nc1nc(-c2ccc(NC(=O)c3ccco3)cc2)cs1 | inconclusive: 0.82 µM [activator, partial curve] |
| COc1ccc(C(=O)NCc2ccco2)cc1S(=O)(=O)NC1CC1 | inconclusive: 3.66 µM [inhibitor, partial curve, poor fit] |
| OC(COc1ccc(Br)cc1)CN1CCCC1 (configuration not stated) | inactive |
| CCCC(c1nnnn1Cc1ccc(F)cc1)N1CCN(C2CCCCC2)CC1 (configuration not stated) | inconclusive: 29.1 µM [inhibitor, single point] |
| COc1ccc(N2CCN(C(=O)Cc3ccc(-n4c(=O)[nH]c5ccccc5c4=O)cc3)CC2)cc1 | inconclusive: 23.1 µM [inhibitor, partial curve] |
| CCN(CC)c1ccc(NC(=O)c2cccc(C)c2OC)c(C)c1 | inconclusive: 4.11 µM [activator, full curve] |
| CC(=O)N1/C(=C/c2ccc(N(C)C)cc2)C(=O)c2ccccc21 | inconclusive: 25.9 µM [inhibitor, single point] |
| O=C(NCCc1ccccc1)C1CCN(C(=O)Nc2ccccc2)CC1 | inconclusive: 20.6 µM [activator, single point] |
| O=C1CCCC2=C1C(c1ccc(O)c(O)c1)c1c(ccc3ncccc13)N2 (configuration not stated) | inconclusive: 20.6 µM [activator, partial curve] |
| O=C1c2ccccc2C(Nc2cccc(C(F)(F)F)c2)N1Cc1ccco1 (configuration not stated) | inconclusive: 11.6 µM [inhibitor, partial curve] |
| COc1ccc(NC(=O)c2nc[nH]c2C(=O)NCCCCCNC(=O)OC(C)(C)C)cc1 | inconclusive: 11.2 µM [activator, single point] |
| CCc1nc(NCc2ccc3c(c2)OCO3)c2oc3ccccc3c2n1 | inactive |
| Cc1nn(Cc2c(Cl)cccc2Cl)c(C)c1N | inactive |
| O=S(=O)(Nc1cccc(-c2ccc(N3CCCCCC3)nn2)c1)c1cccc(F)c1 | inconclusive: 16.4 µM [activator, partial curve] |
| CCN(CC)S(=O)(=O)c1ccc(C)c(NC(=O)CN(C)C)c1 | inconclusive: 20.6 µM [activator, partial curve, poor fit] |
| O=C(CCl)N1N=C(c2ccco2)CC1c1ccco1 (configuration not stated) | inconclusive: 2.59 µM [inhibitor, partial curve] |
| CCCCOC(=O)CSC1=C(C#N)C(c2cccnc2)C(C(=O)OCC)=C(c2ccccc2)N1 (configuration not stated) | inconclusive: 20.6 µM [inhibitor, single point] |

2 neighbouring compounds already listed, quoted:

| Structure (SMILES) | Potency |
| --- | --- |
| CCCC(c1nnnn1Cc1ccc(F)cc1)N1CCN(C2CCCCC2)CC1 (configuration not stated) | inconclusive: 29.1 µM [inhibitor, single point] |
| COc1ccc(N2CCN(C(=O)Cc3ccc(-n4c(=O)[nH]c5ccccc5c4=O)cc3)CC2)cc1 | inconclusive: 23.1 µM [inhibitor, partial curve] |

(next part)

| Structure (SMILES) | Potency |
| --- | --- |
| Cc1ccc(Cn2cccc(NC(=O)c3ccco3)c2=O)cc1 | inconclusive: 20.6 µM [activator, single point] |
| COc1ccc(N2C3=C(C(=O)CC(C)(C)C3)C(c3ccccc3OC)C3=C2CC(C)(C)CC3=O)cc1 | inconclusive: 18.3 µM [inhibitor, single point] |
| Cc1ccc(C(=O)NNC(=O)c2ccoc2C)s1 | inconclusive: 29.1 µM [inhibitor, partial curve, poor fit] |
| CC1CCN(c2ccc(-c3ccc(NC(=O)c4ccco4)cc3)nn2)CC1 | inconclusive: 11.6 µM [activator, single point] |
| C/C(=N/Nc1ccc([N+](=O)[O-])cc1)c1ccc(C)cc1C | inconclusive: 14.6 µM [activator, partial curve, poor fit] |
| Cc1ccccc1-n1nnnc1SCc1cc(=O)n2ccsc2n1 | inconclusive: 20.6 µM [inhibitor, partial curve, poor fit] |
| O=C(Nc1ccccc1)OCc1cc(-c2ccccc2Cl)on1 | inconclusive: 18.4 µM [activator, single point] |
| O=C(Nc1ccc(N2CCCCCC2)cc1)c1ccc[nH]1 | inconclusive: 1.46 µM [activator, full curve] |
| COCCNC(=O)c1ccc2nc(Cc3ccc(OC)c(OC)c3)oc2c1 | inconclusive: 18.3 µM [activator, single point] |
| CNC(=O)c1c(Br)cnn1-c1ccc(C)cc1 | inconclusive: 14.6 µM [activator, partial curve] |
| Fc1cccc(-c2cc3nc(-c4ccccc4)cc(N4CCC5(CC4)OCCO5)n3n2)c1 | active: 23.1 µM |
| COc1ccccc1CC(=O)Nc1ccc(S(=O)(=O)N2CCCC2)cc1 | inconclusive: 29.1 µM [inhibitor, partial curve, poor fit] |
| C=CCN1c2ccccc2[C@]23C[C@@H](C(=O)OC)N(C(=O)c4ccc(Br)cc4)C2=NC(C(=O)OC)=C(C(=O)OC)[C@H]13 | inconclusive: 29.1 µM [inhibitor, single point] |
| CCNS(=O)(=O)c1ccc(-c2ccc(-n3cnnn3)cc2)cc1 | inconclusive: 7.3 µM [activator, partial curve, poor fit] |
| O=C(NCC(=O)N1CCCC1)c1ccccc1F | inconclusive: 9.2 µM [activator, partial curve] |
| COc1cccc(-c2csc(NC3OC(=O)c4c3ccc(OC)c4OC)n2)c1 (configuration not stated) | inconclusive: 14.6 µM [activator, partial curve] |
| CC(=O)N1CCSc2ccc(S(=O)(=O)Nc3ccccc3C)cc21 | inactive |
| Cc1ccc(C)c(-n2cc(-c3ccc(Cl)cc3)nc2SCC(=O)NC2CCS(=O)(=O)C2)c1 (configuration not stated) | inconclusive: 25.9 µM [inhibitor, partial curve] |
| COc1ccc(CN2C(=O)CC(C(=O)NCCc3ccc(S(N)(=O)=O)cc3)SC2=Nc2ccccc2)cc1 (configuration not stated) | inconclusive: 14.6 µM [inhibitor, partial curve] |
| Cc1ccc2cc(CN(CC3CCCO3)S(=O)(=O)c3ccccc3)c3nnnn3c2c1 (configuration not stated) | inactive |
| Cc1cc(C)n(C(=O)c2ccc([N+](=O)[O-])cc2Cl)n1 | inactive |

Another view of some results above:
Structure (SMILES)	Potency
Cc1csc(NC(=O)CSc2nc(C)cs2)n1	inconclusive: 23.1 µM [activator, single point]
Cc1ccccc1OCC(=O)N1CCCc2ccccc21	inconclusive: 14.6 µM [activator, partial curve, poor fit]
Cc1c(C(=O)N2CCN(c3cccc(Cl)c3)CC2)cccc1[N+](=O)[O-]	inconclusive: 25.9 µM [inhibitor, single point]
CN1CCN(C(=O)C2CCC(=O)N(Cc3cccc(C(F)(F)F)c3)C2)CC1 (configuration not stated)	inconclusive: 13 µM [inhibitor, partial curve, poor fit]
O=C(Nc1cc(C(F)(F)F)ccc1N1CCOCC1)c1ccccc1	inactive
CN(CC(=O)Nc1ccc(Cl)c(C(F)(F)F)c1)C(=O)CCCc1nc2ccccc2c(=O)[nH]1	active: 11.2 µM
CCCCCc1ccc(-c2cn(Cc3ccc(C)cc3)nn2)cc1	inactive
COc1cc(OC)c(Nc2cc(C)nc3nc(C)nn23)cc1Cl	inconclusive: 18.4 µM [inhibitor, partial curve, poor fit]
COC(=O)CCN(c1ccccc1)S(=O)(=O)c1cc(-c2cc(C)no2)ccc1OC	inactive
OC(COc1ccc(Br)cc1)CN1CCCC1 (configuration not stated)	inactive
CCN(CC)c1ccc(NC(=O)c2cccc(C)c2OC)c(C)c1	inconclusive: 4.11 µM [activator, full curve]
O=C(NCCc1ccccc1)C1CCN(C(=O)Nc2ccccc2)CC1	inconclusive: 20.6 µM [activator, single point]
CCCCOC(=O)CSC1=C(C#N)C(c2cccnc2)C(C(=O)OCC)=C(c2ccccc2)N1 (configuration not stated)	inconclusive: 20.6 µM [inhibitor, single point]
O=C(Nc1ccccc1)OCc1cc(-c2ccccc2Cl)on1	inconclusive: 18.4 µM [activator, single point]
CNC(=O)c1c(Br)cnn1-c1ccc(C)cc1	inconclusive: 14.6 µM [activator, partial curve]
COc1ccccc1CC(=O)Nc1ccc(S(=O)(=O)N2CCCC2)cc1	inconclusive: 29.1 µM [inhibitor, partial curve, poor fit]
CC(=O)N1CCSc2ccc(S(=O)(=O)Nc3ccccc3C)cc21	inactive
Cc1ccc2cc(CN(CC3CCCO3)S(=O)(=O)c3ccccc3)c3nnnn3c2c1 (configuration not stated)	inactive
